Assay results published in patent US10568879B2 (GALAPAGOS NV, priority 2015, dated 2020).
At least one compound was matched to its structure with a doubt left.

The chains behind the UniProt entries cited, without tags or fusion partners. Where a name states a change or a piece, a line headed by the entry shows the natural chain unless it says otherwise.
UniProt Q9NQS5: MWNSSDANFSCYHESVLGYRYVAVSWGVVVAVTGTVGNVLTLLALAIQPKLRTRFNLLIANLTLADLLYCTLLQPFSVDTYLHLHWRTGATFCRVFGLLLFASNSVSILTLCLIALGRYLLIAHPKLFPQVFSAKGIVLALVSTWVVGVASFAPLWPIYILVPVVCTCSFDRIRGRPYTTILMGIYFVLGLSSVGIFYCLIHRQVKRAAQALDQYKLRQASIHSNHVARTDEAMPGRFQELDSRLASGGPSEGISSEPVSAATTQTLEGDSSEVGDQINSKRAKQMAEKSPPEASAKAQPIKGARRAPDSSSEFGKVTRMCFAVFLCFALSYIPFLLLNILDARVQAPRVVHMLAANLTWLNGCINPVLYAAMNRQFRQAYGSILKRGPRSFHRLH

How the values were obtained:
[1] = test system: human neutrophils; test: Human neutrophil migration assay; format: cell-based
Method: The activity of GPR84 agonists and antagonists can therefore be assayed in a human neutrophil migration assay. The human neutrophil migration assay makes use of freshly isolated human neutrophils from buffy coats that are subsequently used in a functional chemotaxis assay setup. […] After 1 h of incubation at 37° C. and 5% CO2, the number of migrated neutrophils in the lower compartment can be quantified by measuring the ATP content using ATPlite™ Luminescence Assay System. A human buffy coat suspension is diluted with an equal volume of ice cold DPBS. 20 mL of the diluted buffy coat suspension is gently mixed with 4 mL of ACD buffer (140 mM citric acid, 200 mM sodium citrate and 220 mM dextrose). Then, 12 mL of a 6% dextran/0.9% NaCl solution (15 g dextran T2000 and 2.25 g NaCl dissolved in 250 mL H2O) is added to the mixture and the samples are inverted gently up to 20 times. The total volume is transferred to a new recipient and incubated at room temperature to allow sedimentation of red blood cells. […] After incubation, 270 μL of cell lysate is then transferred onto a white 96-well plate for quantification by a luminescence plate reader. The relative luminescent signal measured is considered linearly related to the number of cells having migrated from the upper compartment into the receiver well.

[2] = biological target: T1, GPR84 (Homo sapiens, UniProt Q9NQS5); conditions: literature; cited from earlier work
T1 construct: expressed in transfected cells

[3] = test system: GPR84; conditions: experimental oesophagitis, treated rats; Abdel-Aziz et al. 2015; cited from earlier work

Row | SMILES | neutrophil chemotaxis induced by GPR84 agonists [1] | GPR84 agonist activity [2] | GPR84 in the oesophageal tissue [3]
1 | CCCCCCCCCCCC1=C(O)C(=O)C=C(O)C1=O [embelin, reference compound] | induce neutrophil chemotaxis | some GPR84 agonist activity | –
2 | COc1ccc2[nH]c([S+]([O-])Cc3ncc(C)c(OC)c3C)nc2c1 (stereo not drawn) [omeprazole] | – | – | significantly decreased
